{"source": "patent US12138256B2", "about": "“Treatment of cardiopulmonary disorders” (Bayer Aktiengesellschaft, priority 2021, dated 2024)", "tested_on": "PAH minipig model", "test": "Deposited lung dose (absorbing filters) in PAH minipig model and prediction of human dose and duration of effect", "assay_type": "in vivo, Göttingen minipig", "description": "The anesthetized thromboxane A2 challenged PAH-minipig model (see experimental part C-2.1) is considered to be the most relevant and sensitive model for the prediction of the human minimal effective and effective doses (MED, ED). To determine effective LDs, experiments in minipigs were repeated with the difference that absorbing filters were attached at the end of the tubes to determine the deposited lung dose. […] Assuming a minimal effective ND of 3 μg/kg (5% reduction in PAP) the minimal effective deposited LD is considered as 0.15 μg/kg (see FIG. 1).\nThe resulting lung deposited doses in the minipig of 0.15, 0.5, 1.5 and 5 μg/kg were multiplied by 60 kg to achieve the lung dose in humans. Thus, the FPD reflecting the PAP reduction for a 60 kg human are calculated to be 9, 30, 90 and 300 μg.\nThus, via a direct up-scaling from minipig, the predictive MED (5% PAP reduction) for a human based on a 60 kg body weight is calculated to be 9 μg LDD, not considering protein binding within the respiratory tract. As a surrogate for unbound concentrations, which are the likely active concentrations in the lung, we considered respective differences in fractions unbound in plasma of minipig and human. This consideration results in a minimum effective lung dose (LD) for a 60 kg participant of 41 μg LDD for the assumed 5% reduction on PAP. Consequently, the predictive minimal human effective dose is in the range from 9 μg LDD to 41 μg LDD based on a 60 kg body weight (see FIG. 2).\nThis translation was also conducted for effective doses (effective PAP reduction>five up to 35 percent for longer time periods up to the complete observation period of 4 hrs) based on the relative lung deposited doses in minipigs as listed in Table 2.\nFor DPI products, it is assumed that the fine particle dose (FPD) is basically equivalent to the human lung deposited dose. […]", "data": [{"smiles": "O=C(O)c1ccc(CCN(CCc2ccccc2OCc2ccc(-c3ccc(C(F)(F)F)cc3)cc2Cl)[C@H]2CCCc3nc(C(=O)O)ccc32)cc1", "note": "[comparative example 11, (5S)-5-{[2-(4-carboxyphenyl)ethyl][2-(2-{[3-chloro-4′-(trifluoromethyl)[biphenyl]-4-yl]methoxy}phenyl)ethyl]amino}-5,6,7,8-tetrahydroquinoline-2-carboxylic acid]", "values": [{"measurement": "relative lung deposited dose", "setting": "100 μg/kg nominal dose", "result": "~5", "unit": "µg/kg"}, {"measurement": "nebulization efficiency", "setting": "absorbing filters at the end of the tubes", "result": "3-6 % of nominally applied doses"}, {"measurement": "mean nebulization efficiency (aerosol fraction deposited on the filters)", "setting": "arithmetic mean of all filter experiments", "result": 5, "unit": "%"}]}]}
